# Experimental data as given in PMC9596403.
# The chains behind the UniProt entries cited, without tags or fusion partners. Where a name states a change or a piece, a line headed by the entry shows the natural chain unless it says otherwise.
# UniProt O96017: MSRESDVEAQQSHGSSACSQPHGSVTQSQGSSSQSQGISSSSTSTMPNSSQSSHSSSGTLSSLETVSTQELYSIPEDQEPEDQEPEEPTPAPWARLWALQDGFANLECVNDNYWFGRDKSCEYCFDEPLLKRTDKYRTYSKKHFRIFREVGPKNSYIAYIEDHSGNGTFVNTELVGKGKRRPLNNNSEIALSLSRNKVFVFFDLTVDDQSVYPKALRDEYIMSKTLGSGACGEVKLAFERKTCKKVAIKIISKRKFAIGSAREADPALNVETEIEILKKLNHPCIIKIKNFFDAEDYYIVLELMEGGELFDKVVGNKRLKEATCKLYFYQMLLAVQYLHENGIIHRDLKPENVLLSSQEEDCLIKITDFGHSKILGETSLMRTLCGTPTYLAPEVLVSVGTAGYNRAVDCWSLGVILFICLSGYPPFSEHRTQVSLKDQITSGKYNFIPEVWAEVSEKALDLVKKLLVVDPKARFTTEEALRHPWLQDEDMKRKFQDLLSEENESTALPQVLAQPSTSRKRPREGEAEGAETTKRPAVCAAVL
# UniProt P78527: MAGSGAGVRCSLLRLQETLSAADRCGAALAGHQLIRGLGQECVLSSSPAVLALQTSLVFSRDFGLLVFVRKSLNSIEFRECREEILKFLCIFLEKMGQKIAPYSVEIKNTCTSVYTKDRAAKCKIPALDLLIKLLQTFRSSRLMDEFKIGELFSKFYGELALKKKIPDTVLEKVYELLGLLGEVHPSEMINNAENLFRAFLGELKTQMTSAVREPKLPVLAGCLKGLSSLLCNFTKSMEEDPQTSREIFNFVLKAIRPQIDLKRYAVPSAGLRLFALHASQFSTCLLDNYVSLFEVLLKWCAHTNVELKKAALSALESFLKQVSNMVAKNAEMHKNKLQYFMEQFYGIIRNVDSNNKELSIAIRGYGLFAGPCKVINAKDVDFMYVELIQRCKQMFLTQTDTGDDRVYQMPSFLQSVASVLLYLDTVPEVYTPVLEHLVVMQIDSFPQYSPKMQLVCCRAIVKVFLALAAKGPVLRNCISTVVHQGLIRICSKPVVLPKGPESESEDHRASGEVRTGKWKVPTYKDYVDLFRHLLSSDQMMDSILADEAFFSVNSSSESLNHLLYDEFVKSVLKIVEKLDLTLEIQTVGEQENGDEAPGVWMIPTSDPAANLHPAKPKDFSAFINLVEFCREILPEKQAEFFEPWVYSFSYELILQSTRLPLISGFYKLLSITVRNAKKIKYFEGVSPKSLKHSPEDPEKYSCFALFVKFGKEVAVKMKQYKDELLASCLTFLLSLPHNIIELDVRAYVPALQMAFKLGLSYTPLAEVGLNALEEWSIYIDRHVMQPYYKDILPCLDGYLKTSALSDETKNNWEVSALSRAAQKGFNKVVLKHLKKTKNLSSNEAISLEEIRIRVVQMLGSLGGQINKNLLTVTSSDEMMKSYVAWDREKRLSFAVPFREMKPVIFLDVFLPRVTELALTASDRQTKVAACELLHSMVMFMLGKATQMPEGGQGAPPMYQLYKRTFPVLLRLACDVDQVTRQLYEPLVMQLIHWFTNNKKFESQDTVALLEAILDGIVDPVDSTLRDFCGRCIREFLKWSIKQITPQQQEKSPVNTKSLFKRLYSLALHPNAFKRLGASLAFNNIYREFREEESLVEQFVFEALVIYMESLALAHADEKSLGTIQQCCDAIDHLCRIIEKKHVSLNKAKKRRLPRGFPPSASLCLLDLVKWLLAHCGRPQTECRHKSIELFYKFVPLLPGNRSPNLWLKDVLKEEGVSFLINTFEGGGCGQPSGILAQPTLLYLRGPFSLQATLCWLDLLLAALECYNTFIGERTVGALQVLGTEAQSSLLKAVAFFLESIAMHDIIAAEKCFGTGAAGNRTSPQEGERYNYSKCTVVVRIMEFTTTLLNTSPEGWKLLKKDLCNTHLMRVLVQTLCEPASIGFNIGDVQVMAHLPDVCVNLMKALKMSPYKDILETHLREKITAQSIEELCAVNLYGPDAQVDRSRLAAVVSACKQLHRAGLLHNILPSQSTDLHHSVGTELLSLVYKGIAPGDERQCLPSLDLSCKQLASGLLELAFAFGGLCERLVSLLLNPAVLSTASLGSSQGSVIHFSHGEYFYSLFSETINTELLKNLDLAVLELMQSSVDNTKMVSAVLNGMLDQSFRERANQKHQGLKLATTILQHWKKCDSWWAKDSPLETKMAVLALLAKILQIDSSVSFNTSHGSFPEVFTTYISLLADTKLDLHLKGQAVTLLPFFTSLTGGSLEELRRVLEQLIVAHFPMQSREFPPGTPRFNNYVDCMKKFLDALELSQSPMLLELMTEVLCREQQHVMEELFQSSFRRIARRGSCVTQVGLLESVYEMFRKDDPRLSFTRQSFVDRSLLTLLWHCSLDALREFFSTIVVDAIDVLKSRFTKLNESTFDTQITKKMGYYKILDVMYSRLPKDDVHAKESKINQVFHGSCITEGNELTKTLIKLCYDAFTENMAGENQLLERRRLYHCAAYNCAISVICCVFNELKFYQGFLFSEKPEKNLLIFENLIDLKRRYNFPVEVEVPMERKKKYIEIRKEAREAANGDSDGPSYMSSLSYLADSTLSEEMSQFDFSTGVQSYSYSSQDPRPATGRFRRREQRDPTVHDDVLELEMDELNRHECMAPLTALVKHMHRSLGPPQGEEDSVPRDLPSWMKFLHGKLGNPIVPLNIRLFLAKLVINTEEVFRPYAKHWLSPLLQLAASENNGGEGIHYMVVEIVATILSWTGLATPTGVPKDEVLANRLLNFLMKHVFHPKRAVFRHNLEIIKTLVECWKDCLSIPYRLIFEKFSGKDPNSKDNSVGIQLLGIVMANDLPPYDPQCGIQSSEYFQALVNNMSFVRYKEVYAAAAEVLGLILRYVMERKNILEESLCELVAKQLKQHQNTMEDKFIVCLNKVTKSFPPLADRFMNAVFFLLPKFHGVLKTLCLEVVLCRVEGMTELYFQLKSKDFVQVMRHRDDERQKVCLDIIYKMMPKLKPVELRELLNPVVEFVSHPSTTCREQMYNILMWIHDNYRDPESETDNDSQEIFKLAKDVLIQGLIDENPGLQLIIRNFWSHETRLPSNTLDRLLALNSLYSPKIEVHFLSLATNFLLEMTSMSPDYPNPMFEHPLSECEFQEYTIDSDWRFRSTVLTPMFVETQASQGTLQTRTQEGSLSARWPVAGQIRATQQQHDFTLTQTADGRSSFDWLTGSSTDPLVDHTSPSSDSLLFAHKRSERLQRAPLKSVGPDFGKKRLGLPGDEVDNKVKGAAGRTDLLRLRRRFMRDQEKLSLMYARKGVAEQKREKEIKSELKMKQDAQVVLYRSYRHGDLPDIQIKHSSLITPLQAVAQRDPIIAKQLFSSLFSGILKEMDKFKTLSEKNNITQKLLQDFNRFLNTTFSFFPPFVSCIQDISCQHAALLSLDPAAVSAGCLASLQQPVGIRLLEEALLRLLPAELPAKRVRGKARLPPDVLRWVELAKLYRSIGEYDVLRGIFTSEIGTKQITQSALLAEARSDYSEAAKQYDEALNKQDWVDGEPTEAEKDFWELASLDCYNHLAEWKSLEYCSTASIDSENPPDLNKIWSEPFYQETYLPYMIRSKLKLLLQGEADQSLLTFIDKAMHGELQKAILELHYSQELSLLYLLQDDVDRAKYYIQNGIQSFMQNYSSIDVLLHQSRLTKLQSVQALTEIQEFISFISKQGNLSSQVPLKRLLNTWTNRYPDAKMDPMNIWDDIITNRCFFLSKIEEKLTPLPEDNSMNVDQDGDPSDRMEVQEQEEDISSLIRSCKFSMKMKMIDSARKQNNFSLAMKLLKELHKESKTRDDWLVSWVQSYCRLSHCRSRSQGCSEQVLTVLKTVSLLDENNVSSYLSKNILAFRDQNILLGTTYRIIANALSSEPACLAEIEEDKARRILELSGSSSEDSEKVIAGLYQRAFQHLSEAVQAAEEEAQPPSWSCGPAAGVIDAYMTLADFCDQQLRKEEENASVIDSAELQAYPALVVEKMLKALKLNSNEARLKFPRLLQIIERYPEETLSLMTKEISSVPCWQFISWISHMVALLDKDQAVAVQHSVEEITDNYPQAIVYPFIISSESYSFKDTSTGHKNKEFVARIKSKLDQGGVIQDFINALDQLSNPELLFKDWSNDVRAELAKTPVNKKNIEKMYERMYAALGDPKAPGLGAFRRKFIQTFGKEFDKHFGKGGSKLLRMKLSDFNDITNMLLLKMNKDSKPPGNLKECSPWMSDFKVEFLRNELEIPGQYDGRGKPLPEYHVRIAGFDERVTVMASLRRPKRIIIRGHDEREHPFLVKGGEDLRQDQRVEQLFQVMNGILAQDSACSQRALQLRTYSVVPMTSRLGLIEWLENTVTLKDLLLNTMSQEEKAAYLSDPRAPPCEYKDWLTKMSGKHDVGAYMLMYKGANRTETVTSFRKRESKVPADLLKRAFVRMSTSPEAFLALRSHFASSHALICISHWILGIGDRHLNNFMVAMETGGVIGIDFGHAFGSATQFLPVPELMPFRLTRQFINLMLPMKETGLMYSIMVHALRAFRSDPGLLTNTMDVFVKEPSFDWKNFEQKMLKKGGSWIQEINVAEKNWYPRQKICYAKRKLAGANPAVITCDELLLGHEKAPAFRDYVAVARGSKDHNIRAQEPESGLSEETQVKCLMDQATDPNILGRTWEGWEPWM
# UniProt P09874: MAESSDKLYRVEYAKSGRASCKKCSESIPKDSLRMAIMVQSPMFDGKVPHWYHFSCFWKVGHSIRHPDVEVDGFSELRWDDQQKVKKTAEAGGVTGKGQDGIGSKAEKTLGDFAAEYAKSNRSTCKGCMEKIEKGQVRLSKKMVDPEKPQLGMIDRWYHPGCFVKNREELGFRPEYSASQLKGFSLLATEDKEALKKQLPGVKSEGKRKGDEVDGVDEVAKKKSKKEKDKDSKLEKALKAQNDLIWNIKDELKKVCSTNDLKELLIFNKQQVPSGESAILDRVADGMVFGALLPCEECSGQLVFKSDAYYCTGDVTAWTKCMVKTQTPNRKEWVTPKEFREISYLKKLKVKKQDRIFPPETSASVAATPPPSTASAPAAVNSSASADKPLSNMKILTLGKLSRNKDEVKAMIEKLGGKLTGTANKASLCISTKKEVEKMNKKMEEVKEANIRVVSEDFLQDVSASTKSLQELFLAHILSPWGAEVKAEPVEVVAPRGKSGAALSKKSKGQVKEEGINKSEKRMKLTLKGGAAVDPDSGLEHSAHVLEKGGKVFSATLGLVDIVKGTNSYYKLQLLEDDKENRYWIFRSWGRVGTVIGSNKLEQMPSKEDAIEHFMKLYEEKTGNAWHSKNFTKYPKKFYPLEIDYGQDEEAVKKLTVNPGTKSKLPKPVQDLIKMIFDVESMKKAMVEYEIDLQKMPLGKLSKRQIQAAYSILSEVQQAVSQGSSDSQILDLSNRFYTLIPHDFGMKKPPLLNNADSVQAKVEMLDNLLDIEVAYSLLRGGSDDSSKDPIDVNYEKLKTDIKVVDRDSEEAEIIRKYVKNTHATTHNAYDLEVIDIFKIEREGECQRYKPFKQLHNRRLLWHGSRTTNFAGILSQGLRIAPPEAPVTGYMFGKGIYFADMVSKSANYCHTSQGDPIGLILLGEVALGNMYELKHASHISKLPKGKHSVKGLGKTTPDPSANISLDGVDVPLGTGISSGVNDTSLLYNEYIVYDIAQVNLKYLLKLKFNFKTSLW
# Results are given in words; binding and its absence hold for the method and conditions named. In cells and extracts the contact can be indirect. Some entries that bind do so weakly or less than the wild type.
# Legend:
# [1] = biological target: Checkpoint kinase 2 (CHK2), endogenous (human (endogenous in HT29)) (UniProt O96017); test: co-IP; endogenous proteins; lysates of HT29-P cells (mock-treated or treated with oxaliplatin) and HT29-OR cells; immunoprecipitated with anti-CHK2 antibody-conjugated agarose; mouse IgG as IP control; western blot
# [2] = biological target: Flag-tagged CHK2 wild-type (F-CHK2-WT) (UniProt O96017); test: co-IP; lysates of HT29-P cells stably expressing F-CHK2 constructs, mock-treated or untreated (no oxaliplatin); immunoprecipitated with anti-FLAG M2 affinity gel; western blot for PARP1
# [3] = biological target: Flag-tagged CHK2 phosphomimetic mutant T68D (F-CHK2-TD) (UniProt O96017); test: as above
# [4] = biological target: Flag-tagged CHK2 wild-type (F-CHK2-WT) (UniProt O96017); test: co-IP; lysates of HT29-P cells stably expressing F-CHK2 constructs, treated with oxaliplatin; immunoprecipitated with anti-FLAG M2 affinity gel; western blot for PARP1
binding [1],binding [2],binding [3],binding [4],Substance
binds,,,,"DNA-dependent protein kinase catalytic subunit (DNA-PKcs), endogenous (from UniProt P78527 1-4128) (enzyme)"
binds,binds weakly,binds,binds,"poly (ADP-ribose) polymerase 1 (PARP1), endogenous (from UniProt P09874 1-1014) (enzyme)"
